These results are taken from the supplement of paper PMC11237882.

T1: Homer1 EVH1 domain
T1 chain: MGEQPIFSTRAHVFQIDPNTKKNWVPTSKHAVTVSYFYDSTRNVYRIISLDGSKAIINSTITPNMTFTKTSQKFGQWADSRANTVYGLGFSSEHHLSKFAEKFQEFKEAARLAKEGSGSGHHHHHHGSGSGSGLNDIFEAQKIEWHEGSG

The other results are listed elsewhere or left out. Values are worked out from sequencing counts and are noisy.

In this experiment the target is T1, Homer1 EVH1 domain. The experiment can be described thus: enrichment score (AUC of log2 frequency ratio across FACS sorting rounds) (log2 AUC); higher = stronger enrichment for Homer1 EVH1 binding.
For MPERLAEMLLDLWTPLIILWITLPPCIYMAPMNQSQ, the enrichment score is -1.07.
As for LGPVCTVIVINSLLLTWTLWILRQRLSSVNAEVSTL, the enrichment score was determined as 3.49.
Turning to MAGIFYFALFSCLFGICDAVTGSRVYPANEVTLLDS, the enrichment score came out at 1.32.
In the case of GTISLSCFLAVVTSYMVILVSLRKHSAKGRQKALST, the enrichment score is 0.887.
As to IVPHRKSDLSKVVVRALFTGACVSLISACMAGILYV, the enrichment score is 0.841.
On to PGLRVSGEQSLAWGLGGPSQSQKRKGDPLASRRKKK, for which the enrichment score is 0.142.
As to SSMGGRPSSPLDKQQRQHLRGQVDTLLRNFLPCYRG, the enrichment score came out at 1.79.
LKGALIKTQLCVLFCIQLFLRLIILWLCILHSMCNL: the enrichment score is -2.94.
The result for EMVLTFLFSAALLATRSVITINKNGPFDFAAQPVDE reads -1.8; that for TEDIGSKGYSLGIFLGVNLLAFLIIVFSYITMFCSI, -0.487.
RGDPSVGIFFFVSYIIISFLVVVNMYIAVILENFSV: the enrichment score stood at 0.305.
The same measure for CSIGMLRFVNLLFSVGNFYLLYLLFHKVQPRNKEYF: 1.6.
As for MCCTKSLLLAALMSVLLLHLCGESEAASNFDCCLGY, the enrichment score was -0.823.
Take LWLINFVLALGQCALAGAFATYYWAMKKPDDISRYP: the enrichment score was 2.92.
As to RPLFLALAVLVTTVLWAVILSILLSKASTERAALLD, the enrichment score was 1.74.
As for MERVNETVVREVIFLGFSSLARLQQLLFVIFLLLYL, the enrichment score is 1.02.
Consider TLHTDGGDVGRAVVARLGLGLLLLALLLPTQIYSNQ, for which the enrichment score was found to be 2.25.
As for MEGAELAGKILSTWLTLVLGFILLPSVFGVSLGISE, the enrichment score came out at 3.83.
The result for IIGHGLSIASLLISLGIFFYFKSLSCQRITLHKNLF reads -0.966.
CISVWNVFLLANFTLVLSIFILPLMHTYAGLAVICA: the enrichment score is 1.35.
Consider MGLNKSASTFQLTGFPGMEKAHHWIFIPLLAAYISI, for which the enrichment score stood at 0.664.
Consider TISQFTLSEETNADVYYYRIIIPVLLMLGISCFIFS, for which the enrichment score is 4.
Consider PAFIASASSSNWEFIGCLISTWHSALCLLKPLILRR, for which the enrichment score is -0.92.
For the molecule TLVLAIPLLLILVSYVHILSAILQFPSTLGRCKAFS, the enrichment score turned out to be 2.54.
For MAQRMTTQLLLLLVWVAVVGEAQTRIAWARTELLNV, the enrichment score was determined as 1.47.
As for ITDYMASELGLLKVLETFVACLIFVFINSPYVYHNR, the enrichment score was found to be 2.28.
As for LQEATISVAGCLLQFFIFGSLATAECLLLAVMAYDR, the enrichment score turned out to be 0.302.
In the case of GALFNGLTLLILALISLFSVPVIYERHQAQIDHYLG, the enrichment score amounted to 1.32.
As to SPEGGDPSIFSSLPLGFFIVSSMVMLIGARYISGVP, the enrichment score was found to be 2.73.
As to MTLIEGVGDEVTVLFSVLACLLVLALAWVSTHTAEG, the enrichment score is -1.12.
The same measure for PATEMSPTGLLVVFAPVVLGLKAITLAALLLALATS: 3.39.
As to GSSTAARIFGVISIIFVVVSIINMALMSAELSWLDL, the enrichment score is -2.13.
On to SFDWSMDAVPLLKTVCDWRNLHTVAFYTGLLLLAYY, for which the enrichment score came to 3.92.
The same measure for DTIIREGTLMGTAIGTCFGYWLGVSSFIYFLAYLCN: 2.51; for MSAREVAVLLLWLSCYGSALWRYSTNSPNYRIFSTR: 0.159.
Consider FLENFSILETHLTWLCICSGFVTAVNLVLYLVVKPN, for which the enrichment score came to 1.56.
Regarding FDKALLAISNVLFVAGLAFVIGLERTFRFFFQKHKM, the enrichment score is 3.26.
For the molecule RRLFPFQLTGISKLISRRMPPFHAGLYTFAFLANLC, the enrichment score is 0.699.
DPEVRVLHSIGHSAAPRLFPLAWTVLLLPLLLLQTP: the enrichment score was -0.716.
With FYVNVMFMLAILLTFFHPFLVYRECRTWKESPSAIA, the enrichment score was -0.758.
Regarding MFVYIVFLFGFSTAVVTLIEDGKNDSLPSESTSHRW, the enrichment score was 1.59.
In the case of MALTFYLLVALVVLSYKSFSSLGCDLPQTHSLGSRL, the enrichment score amounted to 2.21.
The result for MSALGAVIALLIWGQLFAVDSGNDVTDIADDGCPKP reads 2.12; that for WSVGEALILLVVSIGQVFLLKSFFSDKRTTTTRVGS, 2.15.
